Measurements published in PMC11161950.
No constants are given. Whether binding was seen depends on the method and setting. Binding seen in cells or lysates may run through a third protein. Some results given as binding are weak or reduced against the parent protein; the word gives no strength.

Protein sequences, listed by entry. Tags and fused reporters are not part of them.
UniProt Q93009: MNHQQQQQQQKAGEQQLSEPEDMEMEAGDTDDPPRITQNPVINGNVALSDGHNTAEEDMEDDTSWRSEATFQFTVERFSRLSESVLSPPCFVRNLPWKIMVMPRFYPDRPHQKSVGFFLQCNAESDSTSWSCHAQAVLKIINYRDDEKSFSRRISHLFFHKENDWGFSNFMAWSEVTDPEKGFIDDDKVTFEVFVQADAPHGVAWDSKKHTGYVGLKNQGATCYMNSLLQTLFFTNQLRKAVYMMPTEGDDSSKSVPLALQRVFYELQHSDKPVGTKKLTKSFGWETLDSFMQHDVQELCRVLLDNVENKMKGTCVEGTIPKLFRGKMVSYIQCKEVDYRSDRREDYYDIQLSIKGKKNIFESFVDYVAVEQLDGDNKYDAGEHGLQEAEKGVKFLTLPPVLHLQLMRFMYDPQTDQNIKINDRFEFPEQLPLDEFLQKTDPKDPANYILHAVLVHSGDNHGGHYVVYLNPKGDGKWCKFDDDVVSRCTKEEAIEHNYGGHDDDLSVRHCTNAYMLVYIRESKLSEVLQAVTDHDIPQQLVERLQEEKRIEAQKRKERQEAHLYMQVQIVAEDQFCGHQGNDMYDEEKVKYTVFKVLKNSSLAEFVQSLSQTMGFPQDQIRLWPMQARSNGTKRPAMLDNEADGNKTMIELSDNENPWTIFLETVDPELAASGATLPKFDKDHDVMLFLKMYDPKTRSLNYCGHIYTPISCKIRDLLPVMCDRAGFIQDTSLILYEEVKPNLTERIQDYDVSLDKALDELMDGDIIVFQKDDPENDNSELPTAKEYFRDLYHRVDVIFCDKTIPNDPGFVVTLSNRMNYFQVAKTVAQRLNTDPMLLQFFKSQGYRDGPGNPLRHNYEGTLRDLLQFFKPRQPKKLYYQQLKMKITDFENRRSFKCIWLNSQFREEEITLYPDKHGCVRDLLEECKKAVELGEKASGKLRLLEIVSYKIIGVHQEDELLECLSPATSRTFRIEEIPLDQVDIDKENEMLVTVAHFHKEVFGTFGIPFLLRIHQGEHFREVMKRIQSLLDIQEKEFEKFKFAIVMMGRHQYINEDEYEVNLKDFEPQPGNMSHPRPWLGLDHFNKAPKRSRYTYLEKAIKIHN
UniProt O00425: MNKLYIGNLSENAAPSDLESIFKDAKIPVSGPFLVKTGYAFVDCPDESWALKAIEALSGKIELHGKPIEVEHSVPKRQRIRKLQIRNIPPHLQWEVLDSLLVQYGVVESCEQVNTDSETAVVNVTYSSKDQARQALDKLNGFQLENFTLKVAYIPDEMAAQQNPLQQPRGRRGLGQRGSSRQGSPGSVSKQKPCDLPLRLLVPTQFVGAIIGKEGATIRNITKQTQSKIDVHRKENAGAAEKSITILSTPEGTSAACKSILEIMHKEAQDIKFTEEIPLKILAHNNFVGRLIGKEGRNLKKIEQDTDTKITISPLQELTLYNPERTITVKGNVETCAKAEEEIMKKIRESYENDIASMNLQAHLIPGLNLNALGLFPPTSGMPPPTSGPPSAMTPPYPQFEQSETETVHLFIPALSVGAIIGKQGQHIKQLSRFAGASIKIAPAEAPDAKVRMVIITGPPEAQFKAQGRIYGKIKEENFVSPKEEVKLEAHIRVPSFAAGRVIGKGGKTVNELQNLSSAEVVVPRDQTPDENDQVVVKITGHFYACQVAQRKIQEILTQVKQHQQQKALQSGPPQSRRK

What was measured:
Myc-USP7 = Myc-USP7 (UniProt Q93009); assay: co-IP; HEK293T cells co-transfected with Myc-USP7 and Flag-tagged IGF2BP3 plasmids, with or without circSIPA1L3 plasmid; immunoprecipitated with anti-Myc or anti-Flag antibodies, western blot
[1] = molecular target: IGF2BP3 (human (endogenous in breast cancer cells)) (UniProt O00425); assay: co-IP; endogenous IGF2BP3 and USP7; cells and precipitating antibody not told in the text shown (Figure S18D, E)

Row | binding (Myc-USP7) | binding [1] | Substance
1 | binds | – | Flag-IGF2BP3 (from UniProt O00425 1-579)
2 | – | binds | ubiquitin specific peptidase 7 (USP7) (from UniProt Q93009 1-1102) (enzyme)
